Measured values: PubChem BioAssay AID2685 (National Center for Advancing Translational Sciences (NCATS), 2010)
The list shows a part of the results. Further columns of the screen follow, without active or inactive calls. Most of these compounds were active or inconclusive in the main read-out, so they are no random draw. Potencies come from curve fits of mixed quality, noted in brackets.

Test: qHTS Assay for Lipid Storage Modulators in Drosophila S3 Cells;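 on cell number change: cells counted by Cell Tracker Red CMTPX staining in the red channel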
Conditions: BODIPY lipid droplet fluorescence, 18-24 h; for cell number change: measured here: cell count max response, cells fed with added oleic acid
Summary of the method: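 Drosophila S3 cells loaded with oleic acid (400 uM, as added) and compounds at several concentrations; lipid droplets imaged by 488-nm laser-scanning cytometry, 500–530 nm intensity and object ratio to cell channel. Percent activity normalized to 20 uM Triacsin C.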

[1] = measured here: lipid fluorescence (Fed channel) AC50, cells fed with added oleic acid
[2] = measured here: cell number channel AC50, cells fed with added oleic acid

Row | SMILES | cell number change | AC50 [1] | AC50 [2]
1 | COc1ccc(-c2nc(NC(C)=O)sc2-c2ccccc2)cc1 | 120% |  | 
2 | O=[N+]([O-])c1cc([N+](=O)[O-])c2nonc2c1Nc1ccc(O)cc1 | -22.3% | 6.51 µM [rising, full curve, poor fit] | 
3 | O=C(NC1CCCCCC1)c1cc(-c2ccccn2)nc2ccccc12 | 35.5% | 0.731 µM [rising, full curve, poor fit] | 0.146 µM [rising, partial curve, poor fit]
4 | CCOc1ccc(N(C)S(=O)(=O)c2ccc3[nH]cc(C(=O)NCC4CCCO4)c(=O)c3c2)cc1 (centres undefined) |  |  | 0.092 µM [rising, full curve, poor fit]
5 | Cc1ccc(N2CC(C(=O)Nc3nnc(SCCC4OCCO4)s3)CC2=O)cc1 (centres undefined) | 33% |  | 8.91 µM [rising, partial curve, poor fit]
6 | Oc1ccc(Br)cc1CNc1cnc2ccccc2c1 | -22.6% | 14.6 µM [rising, partial curve] | 
7 | COc1cc(C)c(Cl)cc1S(=O)(=O)n1ccnc1 | -49.7% |  | 
8 | COC(=O)c1ccc(CSc2n[nH]c(=S)s2)o1 | 12.5% |  | 
9 | COc1ccc(CCNC(=O)CSc2n[nH]c(C)c2[N+](=O)[O-])cc1OC |  | 29.1 µM [rising, single point] | 
10 | N#CCCN(C(=O)COC(=O)COc1ccccc1Cc1ccccc1)c1ccccc1 | 2.18% | 4.11 µM [rising, single point] | 
11 | CCOc1ccc(NC(=O)c2ccc(NC(=O)CN3C(=O)C(=O)N(CC(C)C)C3=O)cc2)cc1 |  | 0.82 µM [falling, single point] | 
12 | C/C(=N\N=C(N)N)c1ccc(Cl)c(Cl)c1 | 46.2% | 32.6 µM [rising, partial curve, poor fit] | 0.116 µM [rising, full curve, poor fit]
13 | Cc1ccc(NC(=O)CCn2nc(C)cc2C)c(C)c1 | 10.8% | 0.206 µM [rising, partial curve] | 
14 | N#Cc1ccc(NC(=O)c2cc(S(=O)(=O)N3CCOCC3)ccc2N2CCCC2)cc1 | -20% |  | 
15 | CC(C)CCNC(=O)CN(C(=O)CCC(=O)Nc1nccs1)C1CCCCC1 |  | 1.16 µM [falling, partial curve] | 
16 | Cc1cc(Nc2cc(F)ccc2C)n2nc(C)nc2n1 | 6.16% |  | 0.651 µM [rising, partial curve, poor fit]
17 | COc1ccc(/C=N/NC(=O)c2cccc(COCC(F)(F)C(F)F)c2)cc1 | 30.7% | 10.3 µM [rising, partial curve] | 8.2 µM [rising, partial curve]
18 | CCOC(=O)c1csc(NC(=O)c2ccc(S(=O)(=O)N(C)C)cc2)n1 | -9.35% | 0.206 µM [rising, partial curve, poor fit] | 
19 | CC1CN(C(=S)SCC(=O)c2ccc([N+](=O)[O-])cc2)CC(C)O1 (centres undefined) | 3.95% |  | 
20 | COCCn1cnc2c1c(=O)n(CC#N)c(=O)n2Cc1ccccc1 | 12.8% | 0.116 µM [falling, partial curve, poor fit] | 
21 | O=C(Nc1ccccc1Oc1cccnc1)C1CCCN(C/C=C/c2ccc(F)cc2)C1 (centres undefined) | -14.9% | 29.1 µM [falling, single point] | 1.64 µM [rising, partial curve]

Copied from the list:
cell number change with COC(=O)c1ccc(CSc2n[nH]c(=S)s2)o1 is entered as 12.5%
AC50 [2] with Cc1ccc(N2CC(C(=O)Nc3nnc(SCCC4OCCO4)s3)CC2=O)cc1 (centres undefined) is entered as 8.91 µM [rising, partial curve, poor fit]
AC50 [1] with COc1ccc(/C=N/NC(=O)c2cccc(COCC(F)(F)C(F)F)c2)cc1 is entered as 10.3 µM [rising, partial curve]
cell number change with CC1CN(C(=S)SCC(=O)c2ccc([N+](=O)[O-])cc2)CC(C)O1 (centres undefined) is entered as 3.95%

Additional compounds follow:

Row | SMILES | cell number change | AC50 [1] | AC50 [2]
22 | CCOC(=O)c1ccc(NC(=O)c2ccc[n+]([O-])c2)cc1 |  | 0.731 µM [rising, partial curve] | 6.51 µM [rising, single point]
23 | CN(Cc1ccc(OC(F)F)cc1)Cc1nc2c(Br)cc(Br)cc2c(=O)[nH]1 | 7.88% | 4.11 µM [rising, single point] | 
24 | Cc1cc(=O)oc2cc(OCC(=O)NCCCN3CCOCC3)ccc12 | -10.8% | 1.16 µM [falling, partial curve] | 
25 | Cc1oc(-c2ccc(Cl)cc2)nc1CN1CCCC(C(=O)NCc2ccccn2)C1 (centres undefined) | -2.52% |  | 0.00461 µM [falling, full curve, poor fit]
26 | O=C(CN(Cc1ccco1)S(=O)(=O)c1cccs1)Nc1ccccc1C(F)(F)F | -11.3% | 2.06 µM [falling, partial curve] | 
27 | CCCOC(=O)CSC1=C(C#N)C(c2ccccc2OC)C(C#N)C(=O)N1 (centres undefined) | 8.14% |  | 
28 | CC(C)Oc1ccccc1C1CC(=O)Nc2cc3c(cc21)OCCO3 (centres undefined) | -37.2% |  | 0.92 µM [falling, partial curve, poor fit]
29 | CCOC(=O)c1ccc(-c2c(-c3cc(OC)c(OC)c(OC)c3)noc2C)cc1F | -5.09% | 20.6 µM [rising, single point] | 
30 | COc1ccc(NC(C)C(=O)N/N=C/c2ccccc2OCc2ccc(Br)cc2)cc1 (centres undefined) | -35.4% | 5.17 µM [falling, partial curve] | 6.51 µM [falling, partial curve]
31 | COc1cc(S(=O)(=O)N2CCN(C(=O)c3ccccc3)CC2)c(OC)cc1Br |  | 6.51 µM [rising, single point] | 
32 | O=C(NC(=S)NC1C2CC3CC(C2)CC1C3)c1ccccc1 (centres undefined) | 63.7% | 16.4 µM [rising, partial curve] | 20.6 µM [rising, partial curve]
33 | C/C(CCC1CC(C)OC1=O)=N/Nc1nc(-c2ccccc2)cs1 (centres undefined) | 19.4% | 0.326 µM [rising, full curve] | 1.64 µM [rising, partial curve, poor fit]
34 | CC(=O)Nc1cccc(C(=O)OCC(=O)Nc2ccc(Cl)cn2)c1 |  | 0.651 µM [falling, single point] | 
35 | COc1ccc(OC)c(S(=O)(=O)N(C)CC(=O)Nc2ccccc2OC)c1 | 22.1% | 2.91 µM [rising, full curve] | 
36 | CC(Nc1cc(=O)n(C)c(=O)[nH]1)c1ccccc1 (centres undefined) | -0.146% |  | 
37 | Cc1cccc(C)c1OCc1cc(C(=O)NCc2cn(C)nc2C)no1 | 53.4% | 22.4 µM [rising, partial curve] | 15.8 µM [rising, partial curve]
38 | O=C1/C(=C/c2ccc(O)c(O)c2)Oc2cc(O)ccc21 | -60.3% | 29.1 µM [falling, single point] | 29.1 µM [falling, single point]
39 | Cc1cc(C)c(C#N)c(SCC(=O)Nc2ccccc2C(N)=O)n1 | -14.9% | 29.1 µM [falling, single point] | 
40 | Cc1ccc(C(=O)/C=C/c2cc(C#N)n(C)c2C)cc1 | 12.4% |  | 
41 | Nc1ncc(-c2ccccc2)c(-c2ccc(O)cc2O)n1 | -10.3% | 0.731 µM [rising, partial curve] | 
42 | Nc1cc([N+](=O)[O-])ccc1Nc1ccccc1 | -26.4% | 0.116 µM [falling, full curve, poor fit] | 

Row | SMILES | cell number change | AC50 [1] | AC50 [2]
43 | CC(Oc1ccc2c(c1)oc(=O)c1ccccc12)C(=O)NCCCN1CCOCC1 (centres undefined) |  | 29.1 µM [rising, single point] | 
44 | COc1ccc(OCC(=O)N/N=C(\C)CC(=O)Nc2cccc([N+](=O)[O-])c2)cc1 | -2.04% |  | 
45 | O=C(NCC(=O)N(CCc1ccccc1)C(C(=O)NC1CCCCC1)c1ccncc1)c1ccco1 (centres undefined) | -5.49% |  | 
46 | COCCNC(=O)C(=O)NCC1OCCN1S(=O)(=O)c1ccc(F)cc1 (centres undefined) |  | 13 µM [rising, partial curve] | 
47 | O=C(O)[C@H](Cc1ccccc1)NC(=O)N1CCN(c2cccc(C(F)(F)F)c2)CC1 | -16.6% |  | 
48 | O=S(=O)(Nc1cc2nc3ccccc3nc2n1Cc1ccccc1)c1ccc(Cl)cc1 | -0.833% | 18.4 µM [falling, partial curve] | 
49 | CCC1CCCCN1CCCNC(=O)c1ccc2c(c1)NC(=O)CN2C (centres undefined) | -32.1% |  | 25.9 µM [falling, single point]
50 | CC(=O)c1ccc(NC(=O)CSc2nccn2CCc2ccccc2)cc1 | 13.3% |  | 
51 | O=S(=O)([N-]c1nc2ccccc2nc1-n1cc[n+](Cc2ccccc2)c1)c1ccccc1 |  | 0.259 µM [rising, full curve] | 4.11 µM [rising, partial curve, poor fit]
52 | CCCCCCCNC(=O)C1(CC2CC(c3ccc(Cl)cc3)=NO2)CCN(C(=O)c2cc(OCC)c(OCC)c(OCC)c2)CC1 (centres undefined) | 48.9% |  | 25.9 µM [rising, partial curve]
53 | CCN(CC(=O)Nc1ccc(N2CCOCC2)cc1)C(=O)COc1ccccc1OC | 108% |  | 
54 | Cc1cc(NC(=O)COC(=O)CCNS(=O)(=O)c2cccc(C(F)(F)F)c2)no1 | 29.1% |  | 
55 | COc1cc(CNC(C)c2ccccc2)c(Br)cc1OCC(N)=O (centres undefined) | -26.6% | 6.51 µM [falling, single point] | 
56 | O=C(Cn1c(NCCO)nc2ccccc21)c1ccc(F)cc1 | -4.67% | 6.51 µM [rising, single point] | 
57 | C=CCSC1=N/C(=C\C=C\c2ccco2)C(=O)S1 | 1.88% |  | 
58 | COC(=O)c1cc2c(s1)-c1cc(F)ccc1OC2 | 22% | 25.9 µM [rising, single point] | 
59 | Cc1nnc(SCC(=O)NC(C)(C)C)n1NCc1cccc(Br)c1 | -6.32% | 0.0291 µM [rising, full curve] | 
60 | O=C(Cc1ccc(-n2c(=S)[nH]c3ccccc3c2=O)cc1)N1CCC(N2CCCCC2)CC1 | 14.4% | 6.51 µM [falling, single point] | 
61 | COc1ccc(N(CC(=O)NCCc2ccccc2)C(=O)CCC(=O)Nc2nccs2)c(OC)c1 | -9.52% |  | 
62 | CCC1CN(C(=O)N2CCC(C(=O)NCc3cccc(F)c3)CC2)c2ccccc2O1 (centres undefined) | -8.85% | 0.13 µM [rising, full curve, poor fit] | 
